For one assay, the target named is T1, FLAG-GST-EFHC2 (human) (UniProt Q5JST6).
T1 sequence: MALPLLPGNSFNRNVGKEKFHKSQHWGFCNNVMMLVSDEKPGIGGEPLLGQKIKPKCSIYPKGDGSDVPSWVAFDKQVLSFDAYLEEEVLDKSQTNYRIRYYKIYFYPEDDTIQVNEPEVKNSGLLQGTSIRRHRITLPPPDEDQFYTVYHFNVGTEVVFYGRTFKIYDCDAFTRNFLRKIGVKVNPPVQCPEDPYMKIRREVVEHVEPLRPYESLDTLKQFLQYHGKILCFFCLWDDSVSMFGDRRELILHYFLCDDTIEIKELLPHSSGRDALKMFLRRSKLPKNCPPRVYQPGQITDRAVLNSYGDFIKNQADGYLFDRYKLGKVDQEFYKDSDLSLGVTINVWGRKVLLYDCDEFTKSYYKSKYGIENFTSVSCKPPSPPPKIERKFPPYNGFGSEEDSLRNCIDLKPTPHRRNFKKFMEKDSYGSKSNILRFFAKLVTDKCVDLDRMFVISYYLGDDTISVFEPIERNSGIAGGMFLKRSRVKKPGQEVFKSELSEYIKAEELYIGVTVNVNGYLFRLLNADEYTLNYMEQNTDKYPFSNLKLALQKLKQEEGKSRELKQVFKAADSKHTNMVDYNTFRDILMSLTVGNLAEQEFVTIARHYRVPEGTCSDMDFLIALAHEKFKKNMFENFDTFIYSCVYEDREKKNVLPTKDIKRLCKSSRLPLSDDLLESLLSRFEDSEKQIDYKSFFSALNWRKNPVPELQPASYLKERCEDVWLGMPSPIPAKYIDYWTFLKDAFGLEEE
The assay can be described thus: proximity labelling; CF-PPiD on the diversity protein array: 118 FG-tagged human proteins on glutathione magnetic beads, 1536-well plate, 1x and 3x dual spots; translational mixture of AirID, AirID-TP53 or AirID-IκBα with biotin and ATP; HRP-conjugated anti-biotin antibody; only the target purified.

Chains of the proteins cited; added tags and fusions are not shown.
UniProt Q00987: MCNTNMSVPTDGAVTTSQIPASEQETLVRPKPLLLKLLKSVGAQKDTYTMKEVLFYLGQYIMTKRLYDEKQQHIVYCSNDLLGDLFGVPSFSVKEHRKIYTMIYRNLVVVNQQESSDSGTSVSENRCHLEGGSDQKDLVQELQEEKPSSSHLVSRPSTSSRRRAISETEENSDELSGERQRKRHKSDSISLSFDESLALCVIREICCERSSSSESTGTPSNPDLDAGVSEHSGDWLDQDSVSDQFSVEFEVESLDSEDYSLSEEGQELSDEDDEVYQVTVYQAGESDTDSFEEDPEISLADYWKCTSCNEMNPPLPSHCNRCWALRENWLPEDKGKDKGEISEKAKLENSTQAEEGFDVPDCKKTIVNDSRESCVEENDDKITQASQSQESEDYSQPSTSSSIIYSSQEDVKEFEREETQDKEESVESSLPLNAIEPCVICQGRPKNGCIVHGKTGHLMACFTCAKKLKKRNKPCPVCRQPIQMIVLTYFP
UniProt P25963: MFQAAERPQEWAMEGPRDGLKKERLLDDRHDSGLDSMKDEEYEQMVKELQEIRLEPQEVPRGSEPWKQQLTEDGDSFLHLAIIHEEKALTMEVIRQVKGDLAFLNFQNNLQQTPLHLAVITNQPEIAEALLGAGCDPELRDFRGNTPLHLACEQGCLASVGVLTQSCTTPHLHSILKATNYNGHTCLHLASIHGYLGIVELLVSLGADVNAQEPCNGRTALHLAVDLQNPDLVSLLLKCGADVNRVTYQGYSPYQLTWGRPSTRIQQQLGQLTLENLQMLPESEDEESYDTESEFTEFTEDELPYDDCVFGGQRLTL

The next assay deals with T2, FLAG-GST-LATS2 (human) (UniProt Q9NRM7).
T2 sequence: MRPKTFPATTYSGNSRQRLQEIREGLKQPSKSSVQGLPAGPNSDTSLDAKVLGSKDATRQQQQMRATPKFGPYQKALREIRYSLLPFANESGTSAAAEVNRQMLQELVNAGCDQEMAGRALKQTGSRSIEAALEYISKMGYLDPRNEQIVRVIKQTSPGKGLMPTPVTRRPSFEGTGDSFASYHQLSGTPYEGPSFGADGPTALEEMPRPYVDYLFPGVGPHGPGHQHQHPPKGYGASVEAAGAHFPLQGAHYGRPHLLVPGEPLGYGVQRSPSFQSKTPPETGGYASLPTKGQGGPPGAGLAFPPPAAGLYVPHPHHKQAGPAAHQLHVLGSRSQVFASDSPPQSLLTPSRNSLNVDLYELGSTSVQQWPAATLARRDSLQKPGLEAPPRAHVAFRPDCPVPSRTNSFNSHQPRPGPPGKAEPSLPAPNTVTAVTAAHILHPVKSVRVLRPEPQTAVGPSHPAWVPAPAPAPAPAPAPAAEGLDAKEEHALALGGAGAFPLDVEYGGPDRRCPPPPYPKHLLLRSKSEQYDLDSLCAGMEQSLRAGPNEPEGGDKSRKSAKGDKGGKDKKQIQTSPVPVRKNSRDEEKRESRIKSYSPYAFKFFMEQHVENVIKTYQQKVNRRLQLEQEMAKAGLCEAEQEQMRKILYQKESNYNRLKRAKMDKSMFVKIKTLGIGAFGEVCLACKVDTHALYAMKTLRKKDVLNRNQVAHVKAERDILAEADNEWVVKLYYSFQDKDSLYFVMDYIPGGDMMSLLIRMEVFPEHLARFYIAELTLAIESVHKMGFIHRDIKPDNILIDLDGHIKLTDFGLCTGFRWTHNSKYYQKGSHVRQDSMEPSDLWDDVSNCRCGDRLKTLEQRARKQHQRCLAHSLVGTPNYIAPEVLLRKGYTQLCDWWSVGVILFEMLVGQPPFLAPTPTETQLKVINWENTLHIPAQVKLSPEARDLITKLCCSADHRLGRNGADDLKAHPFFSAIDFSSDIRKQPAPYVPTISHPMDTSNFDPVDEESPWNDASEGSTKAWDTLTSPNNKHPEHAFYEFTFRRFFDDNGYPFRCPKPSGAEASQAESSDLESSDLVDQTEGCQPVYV
Described as above.

Another assay addresses FLAG-GST-Mdm2 (human) (UniProt Q00987). The assay can be described thus: proximity labelling; CF-PPiD, model set: FG-proteins captured on glutathione magnetic beads on a 1536-well magnetic plate; translational mixture of AirID-fused protein with 5 mM D-biotin and 1 mM ATP in PBS, room temperature (approximately 25 °C), 1–24 h (normally 3 h); wash with PBS, 0.5 M NaCl, 1% Triton X-100; HRP-conjugated anti-biotin antibody; only the target purified.

These are yes or no findings as the source states them, for the method shown. In cells and extracts the contact can be indirect. A yes stands for co-enrichment or nearness to the bait. Other partners may have been found. For part of these data: No binding means not detected with the bait. For part of these data: Sequences can lack the tags named with a protein.

In the case of “AirID N-terminally fused to IκBα (from UniProt P25963 1-317)”, the binding result with FLAG-GST-EFHC2 (human) is reported as “binds”; with FLAG-GST-LATS2 (human), “no binding”; with FLAG-GST-Mdm2 (human), “no binding”.

Values taken from PMC9217950.
